Reference: PubChem BioAssay AID2685 (National Center for Advancing Translational Sciences (NCATS), 2010)
This is one part of the list. The main result of the screen is listed elsewhere. These columns were measured beside it and carry no call. The list favours compounds with an active or inconclusive main result. The note in brackets gives the kind of curve behind each potency; many fits are weak.

Test: qHTS Assay for Lipid Storage Modulators in Drosophila S3 Cells;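 for cell number change: cells counted by Cell Tracker Red CMTPX staining in the red channel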
Details: BODIPY lipid droplet fluorescence, 18-24 h; for cell number change: measured here: cell count max response, cells fed with added oleic acid
Outline: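 Drosophila S3 cells loaded with oleic acid (400 uM, as added) and compounds at several concentrations; lipid droplets imaged by 488-nm laser-scanning cytometry, 500–530 nm intensity and object ratio to cell channel. Percent activity normalized to 20 uM Triacsin C.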

[1] = measured here: lipid fluorescence (Fed channel) AC50, cells fed with added oleic acid
[2] = measured here: cell number channel AC50, cells fed with added oleic acid

Structure (SMILES)	cell number change	AC50 [1]	AC50 [2]
Cc1cccc(C(=O)NCC(=O)N2CCN(S(=O)(=O)c3cc(C)ccc3C)CC2)c1	12.2%	29.1 µM [rising, single point]	–
COc1ccccc1C(=O)NC(=Nc1nc2ccccc2o1)NC(=O)c1ccccc1OC	-150%	29.1 µM [falling, single point]	–
CN1C(=O)C(O)(CC(=O)c2ccncc2)c2ccccc21 (centres undefined)	–	–	0.00411 µM [rising, full curve, poor fit]
COC(=O)c1n[nH]nc1-c1ccccc1	–	–	6.51 µM [rising, partial curve, poor fit]
Cc1onc(COc2ccccc2O)c1Br	-35.5%	5.8 µM [falling, full curve]	1.16 µM [falling, full curve, poor fit]
CCCCN(c1ccc(C(=O)OC)cc1)S(=O)(=O)c1ccccc1	61.1%	25.9 µM [rising, single point]	20.6 µM [rising, single point]
CSc1ccccc1NC(=O)C1CCN(S(C)(=O)=O)CC1	37.8%	–	29.1 µM [rising, partial curve, poor fit]
C#CCOc1ccc(/C=C2\SC(=S)N(Cc3cccnc3)C2=O)cc1	-4.32%	0.58 µM [rising, full curve]	–
CCOC(=O)Cn1cnc2scc(-c3ccccc3)c2c1=O	18.9%	2.91 µM [falling, single point]	–
Cc1ccc(-c2csc(N3CCC(C(N)=O)(N4CCCCC4)CC3)n2)cc1	-1.21%	29.1 µM [rising, single point]	–
COc1cc(NC(=O)NCCN2CCN(c3ccccc3)CC2)cc(OC)c1OC	6.94%	6.51 µM [falling, single point]	7.31 µM [rising, partial curve, poor fit]
O=C(Nc1cccc(Cl)c1)Nc1ccc2c(c1)OCO2	-22.3%	2.06 µM [rising, partial curve]	–
COc1ccc(CN/C(C)=C(/C#N)C(N)=O)cc1OC	46.1%	–	13 µM [rising, single point]
COc1ccccc1NC(=O)COC(=O)c1cc2ccccc2cc1O	-39.8%	–	32.6 µM [falling, single point]
Cc1ccc(N(C)C(=O)CCS(=O)(=O)c2cc3c(cc2Cl)NC(=O)CO3)cc1	0.288%	0.0517 µM [rising, full curve, poor fit]	–
CCc1cc2c(COC(=O)CCNS(=O)(=O)c3cccc(C(F)(F)F)c3)cc(=O)oc2cc1O	-35.1%	–	20.6 µM [falling, single point]
CCOc1ccc(NC(=O)CCCN2C(=S)NC(C)(C)CC2C)cc1 (centres undefined)	8.61%	4.11 µM [rising, full curve, poor fit]	–
Cn1c(SCc2cccc(F)c2)nnc1-c1cnccn1	47.3%	6.51 µM [falling, single point]	7.31 µM [rising, partial curve, poor fit]
Cc1ccc(S(=O)(=O)N2CCN(CCNC(=O)C(=O)NCc3ccccc3)CC2)cc1	-1.32%	2.51 µM [rising, partial curve]	–

Two records drawn at random from those above, as already listed:
Structure (SMILES)	cell number change	AC50 [1]	AC50 [2]
CCc1cc2c(COC(=O)CCNS(=O)(=O)c3cccc(C(F)(F)F)c3)cc(=O)oc2cc1O	-35.1%	–	20.6 µM [falling, single point]
Cc1ccc(N(C)C(=O)CCS(=O)(=O)c2cc3c(cc2Cl)NC(=O)CO3)cc1	0.288%	0.0517 µM [rising, full curve, poor fit]	–

Additional records follow:

Structure (SMILES)	cell number change	AC50 [1]	AC50 [2]
O=C(CN1CCCCCC1)Nc1cc(C(F)(F)F)ccc1Cl	50.1%	2.31 µM [rising, partial curve, poor fit]	0.058 µM [rising, full curve, poor fit]
CN(CCCC1CCCC1)C(=O)CC1C(=O)NCCN1Cc1cccc(F)c1F (centres undefined)	-10.6%	0.461 µM [falling, full curve, poor fit]	–
Cc1c(NC(=O)C(C)OC(=O)CC2Sc3ccccc3NC2=O)c(=O)n(-c2ccccc2)n1C (centres undefined)	35.7%	–	29.1 µM [rising, single point]
O=C(NC(=S)N1CCN(Cc2ccccc2)CC1)c1ccco1	–	–	0.103 µM [rising, single point]
Cc1cccc(C(=O)NCC(C)NC(=O)c2cccc(C)c2)c1 (centres undefined)	4.38%	23.1 µM [rising, single point]	–
CC1CC(C)CN(C(=O)CN(C)S(=O)(=O)c2ccc3c(c2)c(=O)n(C)c(=O)n3C)C1 (centres undefined)	-23.3%	–	2.31 µM [falling, partial curve]
CN(Cc1cccc(F)c1)C(=O)c1ccc2c(=O)n3c(nc2c1)CCC3	-52.7%	0.184 µM [falling, full curve]	1.3 µM [falling, full curve]
CC1=Nc2cc(C(=O)NCCN3CCOCC3)ccc2Sc2c(C)ccc(C)c21	20.2%	2.31 µM [rising, partial curve]	–
Cc1cc(=O)[nH]c(N/N=C/C=C/c2ccccc2)n1	8.28%	3.66 µM [falling, single point]	2.06 µM [falling, single point]
Cc1ccsc1/C=N/N=C/c1sccc1C	–	20.6 µM [falling, partial curve]	–
CCCC/C(O)=C1\C(=O)CCCC1=NCCc1c(C)[nH]c2ccc(OC)cc12	–	0.651 µM [rising, partial curve, poor fit]	0.517 µM [rising, full curve]
COc1ccc(Cl)cc1Nc1cc(C)nc2nc(C)nn12	9.38%	13 µM [rising, partial curve]	–
CCN1CCN(C(=O)/C=C/c2cccc(Cl)c2)CC1	23.7%	0.00461 µM [rising, full curve, poor fit]	–
COc1ccccc1NC(=O)/C(=C/c1cccc([N+](=O)[O-])c1)c1ccccc1	-4.07%	–	–
O=C(OCC(=O)N1CCN(C(=O)c2ccco2)CC1)c1ccccc1NCCO	-9.67%	25.9 µM [rising, single point]	–
O=C(O)CCn1cc(/C=C2\NC(=S)N(c3ccccc3)C2=O)c(-c2ccc(Br)cc2)n1	19.9%	–	–
O=C(C1COc2ccccc2O1)N1CCCC1 (centres undefined)	–	1.64 µM [falling, partial curve]	–
O=C(NCCCN1CCOCC1)C(=O)N/N=C/c1ccccc1	-31.3%	–	3.26 µM [falling, partial curve]
